Measured values taken from paper PMC5386744.
Results are given in words; binding and its absence hold for the method and conditions named. For part of these data: Binding seen in cells or lysates may run through a third protein. Some entries that bind do so weakly or less than the wild type.

By UniProt entry, the sequences of proteins in these tests, tags left out. Residues count along the entry.
UniProt P48023, residues 130-281: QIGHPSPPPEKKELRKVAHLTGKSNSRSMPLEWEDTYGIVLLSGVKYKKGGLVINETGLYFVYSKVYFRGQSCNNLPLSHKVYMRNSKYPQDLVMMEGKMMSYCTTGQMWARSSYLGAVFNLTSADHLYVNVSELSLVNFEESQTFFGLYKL
UniProt P25445, residues 26-335: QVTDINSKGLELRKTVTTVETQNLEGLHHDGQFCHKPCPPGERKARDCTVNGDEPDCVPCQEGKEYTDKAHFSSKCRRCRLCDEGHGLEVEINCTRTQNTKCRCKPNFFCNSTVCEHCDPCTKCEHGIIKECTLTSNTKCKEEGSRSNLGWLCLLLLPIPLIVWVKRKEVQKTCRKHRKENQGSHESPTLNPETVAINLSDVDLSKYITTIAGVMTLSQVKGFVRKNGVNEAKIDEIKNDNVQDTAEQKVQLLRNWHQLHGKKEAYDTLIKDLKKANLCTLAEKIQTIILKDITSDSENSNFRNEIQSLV
UniProt Q14790: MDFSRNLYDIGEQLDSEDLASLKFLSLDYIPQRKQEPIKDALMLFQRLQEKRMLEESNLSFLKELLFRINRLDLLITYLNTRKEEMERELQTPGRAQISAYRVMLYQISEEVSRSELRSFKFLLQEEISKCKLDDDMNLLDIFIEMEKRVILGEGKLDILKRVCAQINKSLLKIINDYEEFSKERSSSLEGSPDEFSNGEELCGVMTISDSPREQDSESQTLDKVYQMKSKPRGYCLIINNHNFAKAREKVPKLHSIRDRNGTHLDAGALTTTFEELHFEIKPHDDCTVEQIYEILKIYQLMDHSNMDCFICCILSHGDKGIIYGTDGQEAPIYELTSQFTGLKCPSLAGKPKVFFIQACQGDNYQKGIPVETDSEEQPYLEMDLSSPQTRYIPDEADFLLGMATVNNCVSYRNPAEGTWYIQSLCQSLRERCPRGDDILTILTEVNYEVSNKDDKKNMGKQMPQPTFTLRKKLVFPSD

T1: Acid sphingomyelinase (human (endogenous in HeLa)) (UniProt P17405)
T1 sequence: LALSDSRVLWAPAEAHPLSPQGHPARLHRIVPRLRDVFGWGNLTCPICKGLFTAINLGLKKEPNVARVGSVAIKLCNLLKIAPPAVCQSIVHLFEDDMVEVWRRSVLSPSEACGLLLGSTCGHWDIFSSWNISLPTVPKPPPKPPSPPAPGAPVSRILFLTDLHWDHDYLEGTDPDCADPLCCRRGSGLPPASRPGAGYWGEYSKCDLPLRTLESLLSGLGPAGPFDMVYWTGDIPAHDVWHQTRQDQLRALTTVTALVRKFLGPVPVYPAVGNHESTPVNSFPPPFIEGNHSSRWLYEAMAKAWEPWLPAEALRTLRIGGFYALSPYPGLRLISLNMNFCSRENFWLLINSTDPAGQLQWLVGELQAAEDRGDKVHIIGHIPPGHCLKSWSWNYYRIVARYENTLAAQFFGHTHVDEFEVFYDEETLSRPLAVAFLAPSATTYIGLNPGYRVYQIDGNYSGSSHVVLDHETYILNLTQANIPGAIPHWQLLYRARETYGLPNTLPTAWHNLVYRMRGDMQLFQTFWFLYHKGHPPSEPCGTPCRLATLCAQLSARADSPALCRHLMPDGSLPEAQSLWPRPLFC

B1: Pro-caspase-7 (enzyme, UniProt P55210 1-303)
chain: MADDQGCIEEQGVEDSANEDSVDAKPDRSSFVPSLFSKKKKNVTMRSIKTTRDRVPTYQYNMNFEKLGKCIIINNKNFDKVTGMGVRNGTDKDAEALFKCFRSLGFDVIVYNDCSCAKMQDLLKKASEEDHTNAACFACILLSHGEENVIYGKDGVTPIKDLTAHFRGDRCKTLLEKPKLFFIQACRGTELDDGIQADSGPINDTDANPRYKIPVEADFLFAYSTVPGYYSWRSPGRGSWFVQALCSILEEHGKDLEIMQILTRVNDRVARHFESQSDDPHFHEKKQIPCVVSMLTKELYFSQ

What was measured:
[1] = target: Strep-, Fc- and FLAG-tagged CD95 ligand (UniProt P48023); experiment: immunomagnetic isolation of CD95-receptosomes (membrane fractions); SKW6.4 cells labelled on ice with 500 ng Fc-tagged CD95L and protein-G microbeads, shifted to 37°C for various times, sonicated in 0.25 M sucrose buffer without detergent; magnetic fractions separated in a free-flow magnetic chamber and blotted for CD95; only the target purified
[2] = target: T1, Acid sphingomyelinase (human (endogenous in HeLa)); experiment: co-IP; anti-A-SMase antibody coupled to protein G microbeads, µMacs column; lysates of HeLa cells unstimulated or stimulated with 100 ng/mL SFF-CD95L; homogenisation buffer 40 mM HEPES pH 7.4, 150 mM KCl, 0.2% NP40; 1 hour at 4°C; Western blot for caspases

Molecule | binding [1] | binding [2]
CD95 (from UniProt P25445 26-335) (receptor) | binds | 
Pro-caspase-8 (from UniProt Q14790 1-479) (enzyme) |  | binds
B1 |  | binds
